Binding data for 1 substance are collected here from publication PMC9830429.

Amino acid sequences for entries named in this document (tags omitted). A change or cut given only in a name is not applied to a line headed by its entry.
UniProt Q05397: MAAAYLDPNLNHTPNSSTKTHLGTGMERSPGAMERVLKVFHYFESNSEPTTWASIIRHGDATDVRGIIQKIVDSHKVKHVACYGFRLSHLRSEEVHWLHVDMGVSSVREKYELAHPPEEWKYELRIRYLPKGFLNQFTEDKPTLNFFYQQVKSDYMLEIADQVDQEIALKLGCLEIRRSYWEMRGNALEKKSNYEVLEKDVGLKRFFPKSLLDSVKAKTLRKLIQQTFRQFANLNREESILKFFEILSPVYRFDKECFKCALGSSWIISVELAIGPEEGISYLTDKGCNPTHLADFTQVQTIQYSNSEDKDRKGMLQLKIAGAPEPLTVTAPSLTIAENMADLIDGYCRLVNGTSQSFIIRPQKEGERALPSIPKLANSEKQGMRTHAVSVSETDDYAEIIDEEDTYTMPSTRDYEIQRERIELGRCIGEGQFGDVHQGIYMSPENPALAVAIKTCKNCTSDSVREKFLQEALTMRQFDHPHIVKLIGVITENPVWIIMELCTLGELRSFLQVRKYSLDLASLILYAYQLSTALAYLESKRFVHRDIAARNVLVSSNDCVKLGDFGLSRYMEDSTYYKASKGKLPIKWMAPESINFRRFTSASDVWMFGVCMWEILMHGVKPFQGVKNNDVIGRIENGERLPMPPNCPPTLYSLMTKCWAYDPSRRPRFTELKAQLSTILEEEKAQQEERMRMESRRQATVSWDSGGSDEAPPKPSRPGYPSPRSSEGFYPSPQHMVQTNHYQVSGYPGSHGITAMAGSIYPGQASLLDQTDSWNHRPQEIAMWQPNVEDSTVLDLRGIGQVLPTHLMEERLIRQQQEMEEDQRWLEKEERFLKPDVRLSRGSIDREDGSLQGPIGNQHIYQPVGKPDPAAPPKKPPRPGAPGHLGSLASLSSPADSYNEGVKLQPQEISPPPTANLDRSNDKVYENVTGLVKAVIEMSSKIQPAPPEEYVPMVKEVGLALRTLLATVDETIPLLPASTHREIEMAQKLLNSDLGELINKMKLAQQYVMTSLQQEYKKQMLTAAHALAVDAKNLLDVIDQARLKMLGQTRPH
UniProt P05556: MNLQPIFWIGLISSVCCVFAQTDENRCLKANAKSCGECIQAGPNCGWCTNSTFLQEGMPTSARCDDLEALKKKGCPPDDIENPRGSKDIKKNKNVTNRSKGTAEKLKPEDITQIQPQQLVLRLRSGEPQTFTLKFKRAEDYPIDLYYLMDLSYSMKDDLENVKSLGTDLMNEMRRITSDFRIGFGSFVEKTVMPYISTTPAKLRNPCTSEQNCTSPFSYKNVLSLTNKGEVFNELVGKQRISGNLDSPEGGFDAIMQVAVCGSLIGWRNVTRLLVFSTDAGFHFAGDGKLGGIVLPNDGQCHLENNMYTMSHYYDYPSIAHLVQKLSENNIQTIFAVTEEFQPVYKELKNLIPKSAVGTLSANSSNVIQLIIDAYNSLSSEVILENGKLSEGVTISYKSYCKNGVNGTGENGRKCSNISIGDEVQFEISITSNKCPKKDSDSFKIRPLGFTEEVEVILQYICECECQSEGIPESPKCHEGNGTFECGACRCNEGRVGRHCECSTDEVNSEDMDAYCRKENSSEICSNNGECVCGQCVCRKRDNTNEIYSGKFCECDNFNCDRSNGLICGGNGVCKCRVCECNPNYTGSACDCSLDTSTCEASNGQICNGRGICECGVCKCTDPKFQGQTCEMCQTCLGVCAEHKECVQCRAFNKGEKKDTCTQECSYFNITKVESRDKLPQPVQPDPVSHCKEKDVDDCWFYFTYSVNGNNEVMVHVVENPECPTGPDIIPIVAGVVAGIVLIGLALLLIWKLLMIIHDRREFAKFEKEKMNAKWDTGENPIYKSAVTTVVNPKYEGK

Results are given in words; binding and its absence hold for the method and conditions named. In cells and extracts the contact can be indirect. Some binding calls cover weakened binding; strength is not graded here.

The target in this assay is focal adhesion kinase (human (endogenous in EOC cell lines)) (UniProt Q05397). As to the kind of experiment: co-IP; supernatant of 1 x 10^7 EOC cells in IP lysis buffer; IgG or IP antibodies 2 h at 4 °C, protein A/G magnetic beads 2 h at 4 °C; rinsed thrice with high-salt or low-salt buffer; read by silver staining and western blotting.

For “integrin subunit beta 1 (from UniProt P05556 21-798) (receptor)”, the binding entry is listed as “binds”.
